This is an account of results in paper PMC10602884, “Distinct RPA functions promote eukaryotic DNA replication initiation and elongation”.

For at least one entry, the source does not settle the construct or the ends of the probe. Weaker means in comparison with the reference protein, sequence or condition of that experiment.

The subject of the series is Pol-alpha/primase. The series is described as follows: fluorescence anisotropy. Conditions: 30 mM HEPES pH 7.5, 30 mM NaCl, 0.25 mM EDTA, 10% glycerol, 0.01% NP-40, 1 mM DTT, plus 0.5 M NaCl for dT30 (no supplemental NaCl for dT60), 2.5 nM DNA, room temperature, recombinant protein, label: 6-FAM, single-stranded DNA. In general terms: In fluorescence polarisation assays a small probe gives low polarisation when free and higher when bound to something large.

On to “TTTTTTTTTTTTTTTTTTTTTTTTTTTTTTTTTTTTTTTTTTTTTTTTTTTTTTTTTTTT [6-FAM-oligo-dT60]”, for which the binding result reads like this: (DNA pre-bound with equimolar (2.5 nM) RPA-deltaWH (P9), no significant difference from WT RPA) “binds more weakly”; (DNA pre-bound with equimolar (2.5 nM) WT RPA (P1), lower maximum than naked DNA) “binds more weakly”.
